Data reported in publication PMC5533935.
No constants are given. Whether binding was seen depends on the method and setting. Some results given as binding are weak or reduced against the parent protein; the word gives no strength.

The chains behind the UniProt entries cited, without tags or fusion partners. Where a name states a change or a piece, a line headed by the entry shows the natural chain unless it says otherwise.
UniProt P08670: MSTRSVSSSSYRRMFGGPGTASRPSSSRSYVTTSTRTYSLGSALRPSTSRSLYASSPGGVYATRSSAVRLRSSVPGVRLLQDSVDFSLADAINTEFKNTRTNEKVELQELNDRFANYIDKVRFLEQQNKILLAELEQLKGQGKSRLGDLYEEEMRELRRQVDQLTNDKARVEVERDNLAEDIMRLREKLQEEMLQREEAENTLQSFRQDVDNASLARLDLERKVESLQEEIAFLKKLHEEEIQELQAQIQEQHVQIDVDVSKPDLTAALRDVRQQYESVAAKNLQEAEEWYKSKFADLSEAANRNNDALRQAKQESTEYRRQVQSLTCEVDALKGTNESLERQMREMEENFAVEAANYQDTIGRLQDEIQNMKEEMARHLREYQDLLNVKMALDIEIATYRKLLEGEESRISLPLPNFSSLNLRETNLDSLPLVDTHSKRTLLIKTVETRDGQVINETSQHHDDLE
UniProt P03101: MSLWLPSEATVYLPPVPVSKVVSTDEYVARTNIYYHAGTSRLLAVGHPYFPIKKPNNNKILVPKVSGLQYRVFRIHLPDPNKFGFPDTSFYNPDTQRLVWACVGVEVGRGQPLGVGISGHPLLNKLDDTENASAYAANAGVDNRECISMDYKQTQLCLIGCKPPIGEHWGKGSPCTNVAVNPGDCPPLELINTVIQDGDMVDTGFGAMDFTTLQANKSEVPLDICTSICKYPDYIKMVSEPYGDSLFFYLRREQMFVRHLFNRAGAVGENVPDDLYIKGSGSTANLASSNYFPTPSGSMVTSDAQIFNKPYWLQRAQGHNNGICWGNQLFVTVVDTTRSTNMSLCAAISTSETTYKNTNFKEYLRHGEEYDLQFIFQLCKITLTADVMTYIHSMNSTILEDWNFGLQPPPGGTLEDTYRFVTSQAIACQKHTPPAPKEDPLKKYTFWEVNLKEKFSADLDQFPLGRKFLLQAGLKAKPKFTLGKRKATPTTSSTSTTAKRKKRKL

Target: recombinant human vimentin protein (human) (UniProt P08670)
Test: pull-down; cell-free; 1 μg of HPV16-PsVs (with or without furin pretreatment) per 10 μg of immobilized recombinant human vimentin (Pierce coimmunoprecipitation kit); Western blot with CamVir1; both purified

HPV16 pseudovirions (untreated, not furin-cleaved) (from UniProt P03101 1-505; P03107 1-473) (complex)
binding: binds
